Measured values: PubChem BioAssay AID1347076 (National Center for Advancing Translational Sciences (NCATS), 2019)
Screen size: about 400,000 compounds; about 13,000 (3.2%) were called active. Inconclusive means that the source gave no clear call. Such entries were picked first, then a sample of the others. Calls come from the whole dose curve; as a rule, active = well fitted cell-killing curve with a large enough effect; inconclusive = small, poorly fitted or top-dose-only effect, or effect the other way; inactive = flat fitted curve, though single readings scatter. Where the call is inconclusive, the potency comes from a doubtful curve fit.

Test: qHTS assay for MDR1-selective chemotherapeutics: Primary screen using the drug-selected MDR subline cells KB-V1; note: nearly all actives have a fitted effect of over 60% in size
Settings: KB-V1 MDR cells viability, CellTiter-Glo, 72 h; activity change, negative = cytotoxicity: at 46.1 µM (top of the series)
Summary of the method: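 KB-V1 MDR subline cells in DMEM (phenol-red free, 10% FBS) exposed to compounds in qHTS concentration series for 72 h at 37 degrees C. Viability read by CellTiter-Glo luminescence; concentration-effect curves fitted after normalization and correction.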
% is set by controls: 0 for no effect and ±100 for the full control effect; potency is the fitted concentration of half-maximal effect.

Compound	Potency	activity change, negative = cytotoxicity
COc1ccc(N(CC(=O)NC2CCCC2)C(=O)Cn2nnc(-c3ccc(C)o3)n2)c(OC)c1	inconclusive: 16.4 µM [cytotoxic, partial curve]	
Cc1cccc(N2CCN(C(=O)c3cc4ccccc4oc3=O)CC2)c1C	inconclusive: 2.31 µM [rising, partial curve, poor fit]	
CC(C)(C)NC(=O)c1cccc(NC(=O)CSc2ccc(Cl)cc2)c1	active: 14.6 µM	
COC(=O)c1ccccc1NC1CC(=O)N(c2c(C)cccc2C)C1=O (stereo not given)	inactive	
O=C(Cc1ccccc1)Nc1ccc(NC(=O)c2cccs2)c(Cl)c1	active: 20.6 µM	
O=C1CC(NS(=O)(=O)c2cccs2)CN1c1ccc(F)cc1 (stereo not given)		inconclusive: 18.4%
CC(=O)n1cc([C@H]2C=C(C(=O)Nc3ccccc3)O[C@@H](OCc3ccc(CO)cc3)C2)c2ccccc21	inconclusive: 29.1 µM [cytotoxic, single point]	
CCN(CC)c1ccc(/C=C(\C#N)C(=O)NCc2ccccc2)cc1	inconclusive: 20.6 µM [cytotoxic, single point]	
C#CCOCCOCCOCCNc1nc(N2CCN(C(=O)Cn3cc(CCO)nn3)CC2)nc(N2CCN(C(=O)[C@H]([C@@H](C)O)n3cc(CCCCN)nn3)CC2)n1	inconclusive: 16.4 µM [rising, partial curve]	
Cc1ccc2c(CSc3nncs3)cc(=O)oc2c1	inconclusive: 16.4 µM [cytotoxic, partial curve, poor fit]	
Cc1cc(/C=C(\C#N)C(=O)OCC(=O)N(C)c2c(N)n(Cc3ccccc3)c(=O)[nH]c2=O)c(C)n1CC(C)C	inactive	
CC(=O)Oc1c(Br)cc(N(C(C)=O)S(=O)(=O)c2ccccc2)c2ccccc12	inconclusive: 29.1 µM [cytotoxic, single point]	
Cn1c(=O)c2c(ncn2Cc2cccc(Cl)c2)n(C)c1=O	inconclusive: 29.1 µM [cytotoxic, single point]	
O=C(CSc1nnc(C2CCCCC2)n1Cc1ccccc1)NCc1ccco1	inconclusive: 20.6 µM [cytotoxic, partial curve, poor fit]	
C=CCNC(=S)Nc1ccc(C)cc1[N+](=O)[O-]	inactive	
CCOc1ccc(S(=O)(=O)N(C)CC(=O)NCc2ccccn2)cc1Cl	inactive	
CCCCN1C(=O)C(=O)N(CC(=O)c2ccc3c(c2)CCCC3)C1=O		inconclusive: 0%
CC(C)c1ccc(NC(=O)c2ccc(NC(=O)CCS(=O)(=O)c3cccs3)cc2)cc1	inactive	
O=C(CC1C[C@H](C(=O)N2CCCCC2)[C@@]2(CCc3ccccc3)c3[nH]c4ccccc4c3CCN2C1=O)NCCc1ccccn1 (stereo not given in full)	active: 11.6 µM	
COc1ccc(C(=O)N/N=C(\c2ccccc2)c2ccccn2)cc1	active: 0.651 µM	
Cc1cc(O)cc2c1C(=O)/C(=C/c1ccco1)O2	inconclusive: 16.4 µM [cytotoxic, single point]	
O=C(NCC1(c2ccccc2)CCCC1)c1ccccc1Br	inconclusive: 20.6 µM [cytotoxic, single point]	
CC(C)(C)Nc1nc(SCC(=O)Nc2ccccc2)nc(N2CCOCC2)n1	inconclusive: 2.31 µM [cytotoxic, full curve, poor fit]	

Compound	Potency	activity change, negative = cytotoxicity
CC1(C)CC(=NNC(=O)c2n[nH]c3c2CCC3)CC(C)(C)N1	inconclusive: 23.1 µM [rising, single point]	
Cc1csc(NC(=O)Cc2coc3cc(C)c(C(C)C)cc23)n1	inconclusive: 29.1 µM [cytotoxic, single point]	
COc1ccc(NCc2cc3ccccc3[nH]c2=O)cc1	inactive	
Cc1ccc(-c2c3c(=O)n(C)c(=O)n(C)c3c3c(C(F)(F)F)nc4ccccc4n23)cc1	inactive	
O=[N+]([O-])c1ccc2ncnc(N3CCN(Cc4ccc5c(c4)OCO5)CC3)c2c1	inconclusive: 5.8 µM [cytotoxic, full curve]	
CCCN(Cc1nnc(-c2ccccc2Cl)o1)C(=O)c1oc2ccccc2c1C	inconclusive: 29.1 µM [cytotoxic, single point]	
COc1ccccc1N1CCN(C(=O)c2oc3ccc(Br)cc3c2C)CC1	active: 13 µM	
Cc1cc(NC(=O)CSc2nc3ccccc3c(=O)n2Cc2ccc(F)cc2)no1	inactive	
COc1ccccc1N1CCN(C(=O)c2oc3ccc(F)cc3c2C)CC1	inconclusive: 29.1 µM [cytotoxic, single point]	
CCOC(=O)C1=C(C)Nc2ncnn2C1/C=C/c1ccccc1 (stereo not given)	active: 10.3 µM	
Oc1ccc(/C=N/Nc2nccnc2Cl)c(O)c1	inconclusive: 0.651 µM [cytotoxic, full curve]	
CCOc1ccc(CCNc2nc3c(c(=O)n(C)c(=O)n3C)n2CC)cc1OCC	inconclusive: 6.51 µM [cytotoxic, partial curve]	
O=C(Cn1cc([N+](=O)[O-])cn1)Nc1ccc(Cn2cc(Br)cn2)cc1	inconclusive: 18.4 µM [cytotoxic, partial curve]	
CCOC(=O)C1(Cc2ccccc2)C(=O)Nc2ccccc21 (stereo not given)	inactive	
CCS(=O)(=O)N1CC(=O)N(c2cccc(C)c2C)C(C)(C(=O)NC2CCCCC2)C1 (stereo not given)	inactive	
CSc1nnc(C(C)(C)C)c(=O)n1/N=C/c1ccc(Cl)cc1	inactive	
CCc1c(C)nc2cc(-c3ccc(OC)cc3)[nH]n2c1=O	inconclusive: 20.6 µM [cytotoxic, single point]	
COc1ccccc1NC(=O)N1CCC(C(=O)c2ccc(F)cc2)CC1	active: 20.6 µM	
CN(Cc1ccno1)Cc1cn(C)nc1-c1ccc(Oc2ccccc2)cc1	inconclusive: 29.1 µM [cytotoxic, single point]	
C[C@@]12CC(=O)NC1N(C(=O)c1cccc(C(F)(F)F)c1)C(c1ccccc1OC(=O)c1cccc(C(F)(F)F)c1)C2 (stereo not given in full)	inactive	
O=C(CCN1C(=O)[C@@H]2Cc3ccccc3CN2C1=O)NCc1ccc(Cl)cc1	inconclusive: 18.4 µM [cytotoxic, single point]	
O=C(Nc1ccccc1F)c1ccc(Cn2cc(Cl)cn2)cc1	inconclusive: 20.6 µM [cytotoxic, single point]	

Already shown: an excerpt of the list.
Compound	Potency	activity change, negative = cytotoxicity
Cc1cc(NC(=O)CSc2nc3ccccc3c(=O)n2Cc2ccc(F)cc2)no1	inactive	
COc1ccccc1N1CCN(C(=O)c2oc3ccc(F)cc3c2C)CC1	inconclusive: 29.1 µM [cytotoxic, single point]	
CCOC(=O)C1=C(C)Nc2ncnn2C1/C=C/c1ccccc1 (stereo not given)	active: 10.3 µM	
